Tested on: calf thymus DNA
Test: DNA binding titrations (luminescence or UV–Vis) with calf thymus DNA
Settings: luminescence titration, McGhee von Hippel fit

| Structure (SMILES) | n, binding site size in base pairs [bp] |
| --- | --- |
| Cc1cc(C)c2nc3c4ccc[n+]5c4c4c(ccc[n+]4[Ru-4]546([n+]5ccccc5-c5cccc[n+]54)[n+]4ccccc4-c4cccc[n+]46)c3nc2c1 [Compound 5, [Ru(bpy)2(dmdppz)]^2+] | 1.6 |
| Cc1cc[n+]2c(c1)-c1cc(C)cc[n+]1[Ru-4]213([n+]2ccc(C)cc2-c2cc(C)cc[n+]21)[n+]1cccc2c4nc5cc(C)cc(C)c5nc4c4ccc[n+]3c4c21 [Compound 7, [Ru(4,4′dmb)2(dmdppz)]^2+] | 0.7 |
| Cc1cc(C)c2nc3c4ccc[n+]5c4c4c(ccc[n+]4[Ru-4]546([n+]5cc(C)ccc5-c5ccc(C)c[n+]54)[n+]4cc(C)ccc4-c4ccc(C)c[n+]46)c3nc2c1 [Compound 6, [Ru(5,5′dmb)2(dmdppz)]^2+] | 1.4 |
